Reference: US20230192839A1, “ANTIBODIES HAVING CONDITIONAL AFFINITY AND METHODS OF USE THEREOF” (PFIZER INC., priority 2017, published 2023)
Positions count from the first letter of the chain named. No constants are given. Whether binding was seen depends on the method and setting. Some entries that bind do so weakly or less than the wild type. Where a sequence is shown, tags or fusion partners need not be part of it.

The chains behind the UniProt entries cited, without tags or fusion partners. Residues count along the entry.
UniProt P20138, residues 18-259: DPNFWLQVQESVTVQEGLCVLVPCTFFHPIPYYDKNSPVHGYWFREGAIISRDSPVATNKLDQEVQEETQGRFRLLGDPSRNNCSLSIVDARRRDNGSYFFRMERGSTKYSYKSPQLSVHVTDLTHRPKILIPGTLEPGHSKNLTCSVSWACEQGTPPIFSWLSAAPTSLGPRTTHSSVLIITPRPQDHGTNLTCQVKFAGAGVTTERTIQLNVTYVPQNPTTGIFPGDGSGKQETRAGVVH

B1: P02_C02 scFv-Fc fusion (scFv, V domains shown)
VH: QVQLVESGGGLVQAGGSLRLSCAASRRSSRSWAMHWVRQAPGKGLEWVAVISYDGRLKYYADSVKGRFTISRDNAEYLVYLQMNSLRAEDTAVYYCAAEGGMGLDPWGQGTLVTVSS
VL: DIQMTQSPSSLSASVGDRVTITCRASQTISSYLNWYQQKPGKAPKLLIYAASNLHSGVPSRFSGSGSGTDFTLTISSLQPEDFATYYCQQSYSSGTFGQGTKVEIK
B2: P01_B02 scFv-Fc fusion (scFv, V domains shown)
VH: QVQLVESGGGLVQAGGSLRLSCAASRRSSRSWAMHWVRQAPGKGLEWVAVISYDGRLKYYADSVKGRFTISRDNAEYLVYLQMNSLRAEDTAVYYCAAADWYSGGGDALDIWGQGTLVTVSS
VL: B1 VL with S30Y, S31N, A50G, H55Q, S91T, G95P
B3: P01_B06 scFv-Fc fusion (scFv, V domains shown)
VH: QVQLVESGGGLVQAGGSLRLSCAASRRSSRSWAMHWVRQAPGKGLEWVAVISYDGRLKYYADSVKGRFTISRDNAEYLVYLQMNSLRAEDTAVYYCAADTSMFASYDPMDVWGQGTLVTVSS
VL: QSVLTQPPSASGTPGQRVTISCSGSSSNIGRNYVNWYQQLPGTAPKLLIYRDDHRPSGVPDRFSGSKSGTSASLAISGLRSEDEADYYCASWDDTLSGWVFGTGTKLTVL

Columns and labels:
[1] = biological target: human CD33 antigen (human) (UniProt P20138); experiment: SPR (Biacore T200), 37 C, scFv-Fc, 0 and 10 uM MTX
[2] = biological target: human epidermal growth factor receptor antigen (human) (UniProt P00533); experiment: SPR (Biacore T200), 37 C, scFv-Fc, 0 and 10 uM MTX

Binder | binding [1] | binding [2]
B1 | binds | 
B2 | binds | 
B3 |  | binds
